Our source for the cell number change and AC50 values is PubChem BioAssay AID2685 (National Center for Advancing Translational Sciences (NCATS), 2010).

This is one part of the list. These are further read-outs of the screen, such as a control signal, another cell line or another target. No call is given for them. The list favours compounds with an active or inconclusive main result. The note in brackets gives the kind of curve behind each potency; many fits are weak.

The nature of the assay: qHTS Assay for Lipid Storage Modulators in Drosophila S3 Cells.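 As to cell number change: cells counted by Cell Tracker Red CMTPX staining in the red channel.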 Particulars: BODIPY lipid droplet fluorescence, 18-24 h; for cell number change: measured here: cell count max response, cells fed with added oleic acid. The gist of the method: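 Drosophila S3 cells got compounds at several concentrations plus oleic acid (400 uM solution). Laser-scanning cytometry with 488 nm excitation read lipid droplets at 500-530 nm and cells at 575-640 nm. Percent activity was relative to 20 uM Triacsin C.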
In general terms: In qHTS, concentration-response curves come from the screen itself.

Setting [1] is: measured here: lipid fluorescence (Fed channel) AC50, cells fed with added oleic acid.
[2] abbreviates: measured here: cell number channel AC50, cells fed with added oleic acid.

As to `CC(=O)N1c2ccc(S(=O)(=O)NCCC(=O)NC3CCC(C)CC3)cc2CC1C` (stereo not drawn), the cell number change was found to be 21.2%. For the same molecule, the half-maximal activity concentration (AC50) under setting [1] is 3.66 µM [falling, single point].
As to `O=C1CCC(=O)N1CN(C(=O)c1ccco1)c1ccccc1`, the cell number change is 0.935%. For the same molecule, the AC50 under setting [1] is 2.91 µM [falling, full curve, poor fit].
Take `CCc1ccc(N2CC(C(=O)Nc3ccccc3F)CC2=O)cc1` (stereo not drawn): the AC50 under setting [1] is 29.1 µM [rising, single point].
Regarding `Cc1cccc(S(=O)(=O)Nc2cccc(-c3cn4ccsc4n3)c2)c1`, the cell number change was -22.5%. Moreover, under setting [1], the AC50 is 18.4 µM [falling, partial curve, poor fit].
As for `Clc1cccc(Cn2ncc3ccccc32)c1`, the cell number change turned out to be 17.7%. Further, the AC50 under setting [2] was 0.58 µM [falling, single point].
With `O=C(COC(=O)c1ccc(O)cc1)Nc1nccs1`, the cell number change amounted to 16.2%. Further, under setting [2], the AC50 was 2.91 µM [falling, partial curve, poor fit].
As for `Cc1ccccc1NS(=O)(=O)c1ccc(C(=O)NCC(c2ccco2)N2CCCCC2)cc1` (stereo not drawn), the AC50 under setting [1] is 29.1 µM [rising, single point].
As to `Fc1ccc(/C=N/NC(=S)NCCc2ccccc2)cc1F`, the cell number change is -5.22%. Moreover, the half-maximal activity concentration (AC50) under setting [1] was 6.51 µM [falling, single point].
`COC(=O)c1ccc(CNC(=O)c2ccc3c(c2)S(=O)(=O)N=C2CCCCCN23)cc1`: the cell number change is -3.68%. Further, the AC50 under setting [2] is 0.517 µM [rising, single point].
In the case of `CC(C)NC(=O)COc1coc(CN2CCN(Cc3ccccc3)CC2)cc1=O`, the cell number change amounted to 4.25%.
Turning to `O=C(Nc1ccc2c(c1)CCC2)c1ncoc1-c1ccccc1F`, the cell number change came to 24.2%. Moreover, under setting [1], the AC50 was 29.1 µM [rising, single point].
As to `COc1ccc(NC(=O)CSc2nnc(-c3ccc(F)cc3)o2)cn1`, the cell number change is -0.614%. Under setting [2], the AC50 is 0.146 µM [falling, full curve, poor fit]. Further, under setting [1], the AC50 is 0.116 µM [falling, full curve, poor fit].
As to `Cc1cc(=O)[nH]c(/N=C(\N)Nc2cccc3ccccc23)n1`, the cell number change is -12%. Under setting [1], the AC50 is 7.31 µM [rising, partial curve].
`Cc1ccsc1/C=N/NC(=O)c1cccc(S(=O)(=O)Nc2ccccc2Cl)c1`: the cell number change was determined as 5.61%. Further, the AC50 under setting [1] was 0.13 µM [rising, full curve, poor fit].
For the molecule `Cc1ccccc1NC(=O)C(C)N1C(=O)c2ccccc2C1=O` (stereo not drawn), the cell number change was found to be 2.55%. Moreover, the AC50 under setting [1] was 2.91 µM [rising, single point].
Turning to `CC(=O)c1cccc(NC(=O)CCNC(=O)c2cccc(C)c2)c1`, the cell number change turned out to be 25.2%.
Regarding `COc1ccc(NC(=O)C2CCCN(CCCc3ccccc3)C2)cc1OCC(C)C` (stereo not drawn), the cell number change is -39.9%. Also, under setting [2], the AC50 is 16.4 µM [falling, single point].
For the molecule `NC(=O)C1CC(=O)N(c2ccc(OCC(=O)Nc3ccc(Cl)cc3)cc2)C1` (stereo not drawn), the cell number change is -11.5%. Also, the AC50 under setting [1] was 29.1 µM [falling, single point].
Consider `CC(C(=O)Nc1ccc(Cl)cc1Cl)N1C(=O)NC2(CCCC2)C1=O` (stereo not drawn), for which the cell number change is -0.833%.
In the case of `CCc1nnc(NC(=O)c2cc(S(=O)(=O)N3CCCCC3)ccc2C)s1`, the cell number change was found to be 10.7%. Moreover, the AC50 under setting [1] was 0.0082 µM [rising, full curve, poor fit].
Consider `COc1ccc(C)cc1NC(=O)CN1C(=O)COc2ccc(C)cc21`, for which the cell number change is -2.58%. In addition, under setting [1], the AC50 is 3.66 µM [rising, single point].
As for `COc1ccc(CCNC(=O)C2CCN(S(=O)(=O)c3ccc(SC)cc3)CC2)cc1`, the cell number change is -11.8%.
On to `COc1ccc(N2CCN(C(=O)COC(=O)CNC(=O)c3ccc(Cl)cc3Cl)CC2)cc1`, for which the cell number change was -50%. Also, under setting [2], the AC50 was 0.82 µM [falling, full curve, poor fit].
With `O=C(c1ccc(S(=O)(=O)Nc2ccccc2F)cc1)N1CCN(c2ccccc2O)CC1`, the cell number change stood at 29.3%.
With `O=C(Nc1cccc(NC(=O)c2ccc3c(c2)OCO3)c1)c1ccccc1`, the half-maximal activity concentration (AC50) under setting [2] is 2.31 µM [rising, partial curve].
For `COc1nc(N)nc(N)c1NS(=O)(=O)c1ccc(C)cc1`, the cell number change was found to be 28.7%. The AC50 under setting [1] is 0.0461 µM [rising, full curve, poor fit].
Take `C=CCn1c(SCc2nc3cc(C(F)(F)F)ccc3c(=O)[nH]2)nc2sc(CC)cc2c1=O`: the cell number change was found to be 1.9%.
On to `CN1CCN(NS(=O)(=O)c2ccc(Cl)cc2)CC1`, for which the cell number change was 6.96%. For the same molecule, the AC50 under setting [1] is 18.4 µM [rising, partial curve].
Turning to `Cc1ccc(-c2nnc(SCC(=O)O)n2N)cc1`, the cell number change is -25.7%. Further, under setting [2], the half-maximal activity concentration (AC50) is 0.259 µM [falling, full curve, poor fit]. Besides, the concentration at half-maximal activity (AC50) under setting [1] was 2.31 µM [falling, full curve].
Regarding `C/C(=N/NC(=O)c1ccc(Br)o1)c1ccncc1`, the cell number change was -72.2%. The AC50 under setting [2] is 5.8 µM [falling, single point].
Regarding `O=C(Cn1ccc(C(F)(F)F)n1)N/N=C/c1ccc(N2CCOCC2)cc1`, the AC50 under setting [1] is 0.184 µM [falling, partial curve].
Consider `CCOc1cc(CNCc2cccs2)cc(Br)c1OCC`, for which the cell number change was -21.9%. Further, the AC50 under setting [1] is 0.00517 µM [falling, full curve, poor fit].
In the case of `O=C(CN1CCCC1)NCc1ccccc1`, the cell number change is 10.5%. In addition, the AC50 under setting [1] is 2.31 µM [rising, full curve].
Consider `O=C(CNC(=O)c1ccco1)NCC(=O)OCc1cccc(Cl)c1`, for which the cell number change is 8.97%. Also, under setting [1], the AC50 was 4.61 µM [rising, full curve, poor fit].
Take `CC(C)(C)c1ccc(C(=O)Nc2ccc3c(c2)C(=O)NC3=O)cc1`: the cell number change stood at 21.3%. For the same molecule, the AC50 under setting [1] was 29.1 µM [rising, single point].
As for `N=c1oc2ccccc2cc1C(=O)NC1CCCCCC1`, the AC50 under setting [2] was 0.92 µM [rising, single point] and the concentration at half-maximal activity (AC50) under setting [1] was 29.1 µM [falling, single point].
For the molecule `COc1ccc(/C=C2\Sc3ccc(C(=O)N4CCCC4)cc3N(C)C2=O)cc1OC`, the cell number change came to 9.57%. Besides, the AC50 under setting [2] was 3.66 µM [falling, partial curve, poor fit].
For the molecule `CSc1ncccc1C(=O)OCC(=O)N(CC(C)C)C1CCS(=O)(=O)C1` (stereo not drawn), the cell number change was 17.7%. For the same molecule, under setting [1], the AC50 was 29.1 µM [rising, single point].
Turning to `Cc1cccc(NC(=O)C2CCCN2C(=O)OCC(C)C)c1` (stereo not drawn), the cell number change is -6.47%. For the same molecule, under setting [2], the AC50 was 0.058 µM [falling, full curve, poor fit].
For the molecule `Cc1cc(C(=O)N2CCCC(N3CCN(c4ccc(F)cc4)CC3)C2)c(C)o1` (stereo not drawn), the cell number change came out at 9.23%. Also, under setting [1], the AC50 was 4.11 µM [rising, partial curve].
On to `Clc1ccc2c(c1)C(N1CCNCC1)Cc1ccccc1S2` (stereo not drawn), for which the cell number change is -83.8%. Moreover, the AC50 under setting [2] was 18.4 µM [falling, single point]. For the same molecule, the AC50 under setting [1] is 29.1 µM [falling, single point].
Regarding `COCCNS(=O)(=O)c1ccccc1`, the cell number change was 48.4%. Under setting [2], the AC50 is 16.4 µM [rising, single point].
For the molecule `O=C(O)c1cccc(NN=C2c3ccccc3-c3ccccc32)c1`, the cell number change was found to be 34.6%. Besides, the AC50 under setting [1] was 0.00461 µM [falling, full curve, poor fit].
For the molecule `COc1cccc(-c2sc3ccc(OC)cc3c2C#CCC(C)O)c1` (stereo not drawn), the cell number change was 9.39%. The AC50 under setting [2] is 0.0326 µM [rising, full curve, poor fit]. For the same molecule, the concentration at half-maximal activity (AC50) under setting [1] is 0.00517 µM [falling, full curve, poor fit].
Take `CCOC(=O)c1c(C)[nH]c(C)c1C(=O)COC(=O)c1ccc(OC)cc1`: the AC50 under setting [2] was 5.8 µM [rising, single point] and the AC50 under setting [1] was 6.51 µM [rising, partial curve].
For `CCC(=O)N(Cc1cc2c(C)ccc(C)c2[nH]c1=O)C1CCCCC1`, the half-maximal activity concentration (AC50) under setting [2] was 4.11 µM [rising, partial curve].
Take `CCc1nnc(NC(=O)c2cc(-c3ccc(C)o3)nc3ccccc23)s1`: the cell number change is -7.63%. In addition, the AC50 under setting [1] is 1.03 µM [falling, full curve].
Regarding `CN1CC(c2ccc(Cl)c(Cl)c2)[C@@]2(COc3ccccc3C2=O)[C@@]12C(=O)Nc1ccccc12` (stereo partly drawn), the cell number change is 37.4%. In addition, under setting [2], the AC50 was 32.6 µM [rising, single point].
In the case of `CN(Cc1cnn(C)c1)C(=O)c1cc2ccccc2oc1=O`, the cell number change is -23.4%. For the same molecule, under setting [2], the AC50 is 3.26 µM [falling, single point].
For the molecule `CN(CC(=O)N1CCCCCC1)S(=O)(=O)c1ccc(Br)cc1`, the cell number change was -30.4%. Further, the AC50 under setting [2] is 7.31 µM [falling, partial curve, poor fit]. For the same molecule, under setting [1], the half-maximal activity concentration (AC50) is 18.4 µM [falling, single point].
Consider `COc1cccc(OCC(O)CN2CCC(Cc3ccccc3)CC2)c1` (stereo not drawn), for which the cell number change was 4.6%. Moreover, under setting [1], the concentration at half-maximal activity (AC50) is 1.03 µM [falling, full curve, poor fit].
For the molecule `CN(C)c1ccc(/C=C/c2nc3ccccc3c(=O)[nH]2)cc1`, the half-maximal activity concentration (AC50) runs as follows: under setting [2], 6.51 µM [rising, single point]; under setting [1], 29.1 µM [falling, single point].
`CN(C)c1nc(-c2cccs2)cc(C(F)(F)F)c1C#N`: the cell number change is 2.18%.
For `Cc1[nH]c2ccccc2c1-c1nc2ccccc2[nH]1`, the cell number change was -31%. In addition, under setting [2], the AC50 was 0.103 µM [falling, full curve, poor fit].
As for `O=C(NC1CCCCC1)NC1CCN(S(=O)(=O)c2ccc3c(c2)OCCO3)CC1`, the cell number change amounted to 1.07%. Also, the half-maximal activity concentration (AC50) under setting [1] was 13 µM [falling, partial curve, poor fit].
With `O=C(NCCc1ccccc1)NC(Cc1ccccc1)C(=O)O` (stereo not drawn), the cell number change was determined as 2.7%. In addition, the AC50 under setting [1] is 6.51 µM [falling, single point].
For `Cc1nc(Nc2cccc(O)c2)c2c3c(sc2n1)CCC3`, the AC50 under setting [1] was 1.46 µM [rising, partial curve].
Regarding `O=C(Nc1ccc(Br)cn1)c1coc(=O)c(Br)c1`, the cell number change is -5.3%.
On to `COc1ccc(NC(=S)NNC(=O)CCn2cc([N+](=O)[O-])cn2)cc1`, for which the cell number change is -19.7%.
The same measure, in the same setting: with `COC(=O)c1ccc(NC(=O)COc2ccc(S(=O)(=O)NC(C)C)cc2)cc1` the figure was -16%.
For the molecule `COc1ccc(/C=N/NC(=O)c2ccccc2OC)cc1COc1ccccc1[N+](=O)[O-]`, the cell number change was -19.1%. Also, the concentration at half-maximal activity (AC50) under setting [1] is 0.112 µM [falling, full curve, poor fit].
With `C=CCOc1ccc(/C=C/C(=O)OCC(=O)N2CCC(c3ccccc3)=N2)cc1`, the cell number change is -3.99%. Also, the AC50 under setting [1] is 8.2 µM [rising, partial curve, poor fit].

By AC50 is commonly meant the concentration giving half of the maximal activity seen. Low readings indicate greater potency, high ones weaker potency.
